{"source": "PubChem BioAssay AID1259423", "about": "(Fisher Drug Discovery Resource Center, 2018)", "note": "This is one part of the list. Some results for these compounds are left out of this collection, so the calls shown say nothing about other tests.", "data": [{"system": "Aedes aegypti neuropeptide Y-like receptor 7 (NPYLR7)", "test": "agonists of mosquito NPYLR7 receptor, primary screen, cell-based, Aedes aegypti, calcium fluorescence, mosquito biting behavior (AID 1259423);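 also: 0% = vehicle and 100% = reference agonist at the receptor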", "settings": "HEK293T NPYLR7/Galpha15, GCaMP6s calcium fluorescence; measured here: Max-Min RFU normalised activation; at 10 µM; stronger effect = higher value", "units": {"activation": "%"}, "values": [{"smiles": "N#CC(C#N)=Cc1ccc(Br)cc1", "activation": 11.6}, {"smiles": "CN(C)C1(CNC(=O)c2cc(Br)c(Br)s2)CCCCC1", "activation": 9.2}]}]}
